What follows are substances tested on tumor tissue samples (assay: Identification and relative quantitation of HLA-presented tumor associated peptides by LC-MS (presentation profile)). Conditions: cancer entities on which the tumor-associated peptide was found presented (HLA ligandome LC-MS); abbreviations per table footnote.
Set-up: species or system human

Substance | Peptide Presentation on cancer entities
393 (ILLPYLQTL; listed as Homo sapiens) [compound 393] | AML, BRCA, CLL, CRC, GBM, HCC, HNSCC, NHL, OC
394 (ASEAEMRLFY; listed as Homo sapiens) [compound 394] | GBM, GC, MEL, NHL
395 (ASEASRLAHY; listed as Homo sapiens) [compound 395] | GBM, GC, NHL, PRCA, UEC
396 (ASEFGNHYLY; listed as Homo sapiens) [compound 396] | GBM, GC, MEL, UEC
397 (ASEITSKGASLY; listed as Homo sapiens) [compound 397] | GBM, GC, HCC, MEL, OC, PRCA
398 (ASEQQALHTVQY; listed as Homo sapiens) [compound 398] | GBM, GC, MEL, NHL, PRCA, UEC
399 (ATDIPCLLY; listed as Homo sapiens) [compound 399] | MEL
400 (ATDISRQNEY; listed as Homo sapiens) [compound 400] | GBM, GC, NHL, OC
402 (DTDSQRLAY; listed as Homo sapiens) [compound 402] | GBM, GC, MEL
403 (ELDSKVEVLTY; listed as Homo sapiens) [compound 403] | GBM, GC, MEL, OC, PRCA
404 (ETARKFLYY; listed as Homo sapiens) [compound 404] | GBM
406 (ETEQTKFWDY; listed as Homo sapiens) [compound 406] | GBM, GC, MEL, OC, RCC, UEC
407 (FSDNDKLYLY; listed as Homo sapiens) [compound 407] | GBM, GC, MEL, NHL, PRCA, UEC
409 (FVDPLVTNY; listed as Homo sapiens) [compound 409] | GBM, GC, HCC, MEL, NHL, OC, OSCAR, PRCA, RCC
411 (GTVYEDLRY; listed as Homo sapiens) [compound 411] | GBM, GC, HCC, MEL, NHL, OC, OSCAR
412 (ILDEVIMGY; listed as Homo sapiens) [compound 412] | GBM, GC, MEL, NHL, OC, OSCAR
413 (ISDRYYTALY; listed as Homo sapiens) [compound 413] | GBM, GC, PRCA, UEC
414 (KTDESLTKY; listed as Homo sapiens) [compound 414] | GC, NHL, PRCA
415 (LLDPRSYHTY; listed as Homo sapiens) [compound 415] | GC, NHL
416 (LLDTAQKNLY; listed as Homo sapiens) [compound 416] | GBM, NHL, PRCA
417 (LLEDKHFQSY; listed as Homo sapiens) [compound 417] | GBM, GC, HCC, MEL, NHL, OC, PRCA, UEC
418 (LSDPSGPKSY; listed as Homo sapiens) [compound 418] | GBM, HCC, PRCA
419 (LSELKPMSY; listed as Homo sapiens) [compound 419] | GBM, GC, HCC, MEL, OSCAR, PRCA, RCC, UEC
420 (LTEDKETLQY; listed as Homo sapiens) [compound 420] | GC, HCC, MEL, NHL, PRCA
421 (LTELLERAAFY; listed as Homo sapiens) [compound 421] | GC, MEL, NHL, UEC

Substance | Peptide Presentation on cancer entities
422 (MIDVTKSYY; listed as Homo sapiens) [compound 422] | GBM, GC, MEL, NHL, OC, OSCAR, PRCA, UEC
423 (NLDAVHDITVAY; listed as Homo sapiens) [compound 423] | GC, MEL, PRCA, UEC
424 (NLDEEKQLLY; listed as Homo sapiens) [compound 424] | MEL, PRCA
425 (NLDIIQQEY; listed as Homo sapiens) [compound 425] | GBM, GC, HCC, MEL, NHL, OC, OSCAR, PRCA, UEC
426 (NLDQATRVAY; listed as Homo sapiens) [compound 426] | NHL
428 (NSELSCQLY; listed as Homo sapiens) [compound 428] | GBM, GC, MEL, RCC
430 (NTEGLHHLY; listed as Homo sapiens) [compound 430] | GBM, HCC, MEL, PRCA
432 (NVDPVQHTY; listed as Homo sapiens) [compound 432] | GBM, GC, HCC, HNSCC, MEL, NHL, OC, OSCAR, PRCA, RCC, UEC
433 (QIDTGENLY; listed as Homo sapiens) [compound 433] | GC, MEL
434 (QTDCAPNNGY; listed as Homo sapiens) [compound 434] | GBM, GC, MEL, PRCA
435 (QTDDTWRTEY; listed as Homo sapiens) [compound 435] | GBM, GC, MEL, NHL, PRCA
436 (QTETGTPYMLY; listed as Homo sapiens) [compound 436] | GBM, GC, MEL, NHL, OC, OSCAR, PRCA, UEC
437 (STDGKHWWEY; listed as Homo sapiens) [compound 437] | GC, MEL, NHL, PRCA
438 (STDNFNCKY; listed as Homo sapiens) [compound 438] | GC, HCC, MEL
439 (TLDAGKFQIY; listed as Homo sapiens) [compound 439] | GC, HCC, MEL, NHL, PRCA, UEC
440 (TLDENPGVRY; listed as Homo sapiens) [compound 440] | GBM, GC, HCC, MEL, NHL, PRCA, UEC
441 (TLDSALNAASYY; listed as Homo sapiens) [compound 441] | GBM, GC, MEL, NHL, PRCA, RCC
442 (TSDFSRFTNY; listed as Homo sapiens) [compound 442] | GBM
443 (TTDFPSESSFEY; listed as Homo sapiens) [compound 443] | GC, MEL, NHL, OC, PRCA, UEC
444 (TTDTVIRSY; listed as Homo sapiens) [compound 444] | GC, MEL, UEC
445 (VLDQGKITEY; listed as Homo sapiens) [compound 445] | GBM, HCC
446 (VTAQVVGTERY; listed as Homo sapiens) [compound 446] | GC, MEL
447 (VVDEDHELIY; listed as Homo sapiens) [compound 447] | GBM
448 (YLDIPNPRY; listed as Homo sapiens) [compound 448] | GBM, MEL, RCC
449 (YLDRGTGNVSFY; listed as Homo sapiens) [compound 449] | GBM, GC, HCC, MEL, PRCA, RCC

Substance | Peptide Presentation on cancer entities
450 (YSDDGQKWTVY; listed as Homo sapiens) [compound 450] | MEL
451 (YSDSLVQKGY; listed as Homo sapiens) [compound 451] | GBM, GC, HCC, OC, PRCA, UEC
452 (YVDAVLGKGHQY; listed as Homo sapiens) [compound 452] | GBM, GC, MEL, NHL, OC, PRCA, UEC
453 (AINTSIKNK; listed as Homo sapiens) [compound 453] | PRCA
454 (KVYTPSISK; listed as Homo sapiens) [compound 454] | GBM, HCC, MEL, UEC
455 (RIADIFVKK; listed as Homo sapiens) [compound 455] | GC, MEL, NHL, OC, UEC
456 (SMFTAILKK; listed as Homo sapiens) [compound 456] | AML, MEL, NHL, OC, UEC
457 (SINKPTSER; listed as Homo sapiens) [compound 457] | GBM
458 (GIADFVLKY; listed as Homo sapiens) [compound 458] | AML, BRCA, GBM, MEL, NHL, UEC
461 (RPILIIVTL; listed as Homo sapiens) [compound 461] | NHL
464 (YPRPGTPAA; listed as Homo sapiens) [compound 464] | AML, GC, MEL, NHL, OC, RCC
465 (VPRPIFSQL; listed as Homo sapiens) [compound 465] | NHL
468 (SPMYGQAGL; listed as Homo sapiens) [compound 468] | RCC
469 (YPENGVVQM; listed as Homo sapiens) [compound 469] | AML, OC
470 (SPNSYFRVL; listed as Homo sapiens) [compound 470] | RCC
471 (KPRPDVTNEL; listed as Homo sapiens) [compound 471] | NHL
472 (NPRATDAQL; listed as Homo sapiens) [compound 472] | AML
473 (LPRALLSSL; listed as Homo sapiens) [compound 473] | NHL, OC
474 (LPRLLPAL; listed as Homo sapiens) [compound 474] | AML, NHL
476 (AEEEIMKKI; listed as Homo sapiens) [compound 476] | NHL
479 (AEIQPQTQV; listed as Homo sapiens) [compound 479] | UEC
480 (GEVSGLTKDF; listed as Homo sapiens) [compound 480] | MEL, NHL, OC
482 (TEREWADEW; listed as Homo sapiens) [compound 482] | AML, MEL, NHL, OC, RCC
483 (EENDQSTHKW; listed as Homo sapiens) [compound 483] | MEL, NHL, OC, RCC, UEC
484 (AEVGFVRFF; listed as Homo sapiens) [compound 484] | AML, MEL, NHL, OC

From patent US11292821B2, “Peptides and combination of peptides for use in immunotherapy against lung cancer, including NSCLC, SCLC and other cancers” (Immatics Biotechnologies GmbH, priority 2017, dated 2022)
